From publication PMC11806767 come the findings set out here.

Protein sequences, listed by entry. Tags and fused reporters are not part of them.
UniProt Q92176: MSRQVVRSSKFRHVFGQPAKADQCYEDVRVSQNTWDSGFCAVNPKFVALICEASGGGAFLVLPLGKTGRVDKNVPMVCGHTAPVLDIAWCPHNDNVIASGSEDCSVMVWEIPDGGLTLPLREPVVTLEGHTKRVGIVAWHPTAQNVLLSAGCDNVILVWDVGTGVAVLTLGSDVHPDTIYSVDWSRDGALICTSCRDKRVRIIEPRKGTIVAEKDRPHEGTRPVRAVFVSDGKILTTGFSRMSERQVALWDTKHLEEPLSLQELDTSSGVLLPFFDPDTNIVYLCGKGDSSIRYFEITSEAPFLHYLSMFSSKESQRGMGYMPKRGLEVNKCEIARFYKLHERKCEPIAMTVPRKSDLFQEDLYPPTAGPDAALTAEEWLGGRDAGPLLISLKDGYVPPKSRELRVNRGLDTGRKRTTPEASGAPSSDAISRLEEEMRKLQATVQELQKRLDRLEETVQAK

Results are given in words; binding and its absence hold for the method and conditions named. In cells and extracts the contact can be indirect. Some binding calls cover weakened binding; strength is not graded here. Where a sequence is shown, tags or fusion partners need not be part of it.

The assay addresses T1, mycobacterial lipoamide dehydrogenase C (LpdC), BiFC fusion (Mycobacterium tuberculosis) (UniProt P9WHH9).
T1 sequence: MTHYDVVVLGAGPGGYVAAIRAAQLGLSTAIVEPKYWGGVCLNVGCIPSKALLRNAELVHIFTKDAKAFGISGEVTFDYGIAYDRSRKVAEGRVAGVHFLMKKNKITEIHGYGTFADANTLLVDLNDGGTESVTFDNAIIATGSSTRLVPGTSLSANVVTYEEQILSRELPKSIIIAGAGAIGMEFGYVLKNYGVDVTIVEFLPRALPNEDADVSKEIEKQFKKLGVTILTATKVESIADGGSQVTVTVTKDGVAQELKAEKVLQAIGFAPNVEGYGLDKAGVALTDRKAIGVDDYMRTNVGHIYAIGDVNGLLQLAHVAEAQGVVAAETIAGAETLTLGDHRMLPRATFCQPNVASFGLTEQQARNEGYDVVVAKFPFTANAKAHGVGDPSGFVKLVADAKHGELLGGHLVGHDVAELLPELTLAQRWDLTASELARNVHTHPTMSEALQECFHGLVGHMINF
The assay can be described thus: split reporter.

For “bovine Coronin-1A, BiFC fusion (from UniProt Q92176 1-461)”, the binding result was “binds”.
